Test results published in paper PMC12040169 (PLOS Biology, 2025).
This is one part of the list.

System: T1, CTL2-GFP (C. trachomatis L2/434/Bu, GFP-expressing)
T1 construct: L2/434/Bu, GFP-expressing
Set-up: species or system HeLa; Intracellular C. trachomatis growth in HeLa cells, bulk GFP fluorescence relative to DMSO
Conditions: bulk GFP, single well; 28.5 h, 10 µM; inhibitor

Row | SMILES | % of control remaining [%]
1 | O=C1CSC2(C(=O)N(Cc3ccccc3)c3ccccc32)N1c1ccccc1 (stereo not shown) [CBK092391] | 119.502
2 | O=C(NC1CCCCC1)c1cc(Br)cnc1NCCCn1ccnc1 [CBK076494] | 133.83
3 | O=C(NCCNC1CCC(c2ccccc2)CC1)c1ccc(F)cc1 (stereo not shown) [CBK266857] | 101.624
4 | O=C(COc1ccc(Cl)cc1)NNC(=O)Cc1cccc2ccccc12 [CBK261693] | 116.868
5 | CCOC(=O)C(C)n1ncc2c3sc(C)cc3n(C)c2c1=O (stereo not shown) [CBK284157] | 115.377
6 | O=C(c1cc(S(=O)(=O)N2CCOCC2)ccc1Cl)N1CCCCC1 [CBK304377] | 153.595
7 | O=C(NC1CCCN(CC(F)(F)F)C1=O)c1cnc(-c2ccncc2)s1 (stereo not shown) [CBK306175] | 119.094
8 | CCCC(=O)N1CCC(Cc2ccc(-c3cccc(C)c3)cc2)(C(=O)NC)CC1 [CBK285786] | 129.223
9 | O=C(CCn1c(C(F)F)cc2cccnc21)NC1CCCC1 [CBK285063] | 116.023
10 | O=C(Cn1nc(C(F)(F)F)c2cccn2c1=O)NC1CCCC1 [CBK282867] | 117.79
11 | CN1CCN(C)C(COc2nccc(C(F)(F)F)n2)C1 (stereo not shown) [CBK113298] | 117.805
12 | Cn1nc(C2CC2)cc1C(=O)NCCCN1CCCc2ccccc21 [CBK282476] | 117.65
13 | COc1ccc([C@@]23CC[C@@H](NC(=O)Nc4ccc(F)c(F)c4)C[C@@H]2N(C(=O)CN)CC3)cc1OC [CBK051679] | 70.4442
14 | Cn1ccnc1CN1C(=O)CO[C@H]2CN(c3ncccn3)C[C@H]21 [CBK289704] | 95.8283
15 | COCCC(=O)NCc1ccc(OC2CCNCC2)cc1 [CBK024494T] | 168.56
16 | O=C(O)COc1ccc(NC(=O)C2CCCO2)cc1 (stereo not shown) [CBK270063] | 130.015
17 | O=C1Nc2ccc(-c3ccc(Cl)cc3)cc2C(=O)N2CCN(C(=O)CO)C[C@H]12 [CBK289594] | 112.007
18 | O=C(c1cccnc1)C1CCN(C(=O)Cc2ccccc2F)CC1 [CBK283814] | 111.965
19 | COc1ccc(C)cc1S(=O)(=O)N(C)CC(=O)Nc1cccc(Cl)c1 [CBK269493] | 135.853
20 | Cc1nn(C(C)C)c(C)c1CN1CCN(C2CCCCC2)C(=O)C1 [CBK282562] | 93.945
21 | CC1CCC2(CC1)NC(=O)N(Cc1csc(-c3ccco3)n1)C2=O (stereo not shown) [CBK304279] | 109.375
22 | Cc1ccccc1CC(=O)NCC(c1ccccc1Cl)N1CCOCC1 (stereo not shown) [CBK304564] | 106.282

Some of these compounds in order of length of the SMILES, high to low.
Row | SMILES | % of control remaining [%]
17 | O=C1Nc2ccc(-c3ccc(Cl)cc3)cc2C(=O)N2CCN(C(=O)CO)C[C@H]12 [CBK289594] | 112.007
21 | CC1CCC2(CC1)NC(=O)N(Cc1csc(-c3ccco3)n1)C2=O (stereo not shown) [CBK304279] | 109.375
10 | O=C(Cn1nc(C(F)(F)F)c2cccn2c1=O)NC1CCCC1 [CBK282867] | 117.79
